These are yes or no findings as the source states them, for the method shown. In cells and extracts the contact can be indirect. Some results given as binding are weak or reduced against the parent protein; the word gives no strength.
Target: CBP (CREBBP, CREB binding protein) (human (endogenous in DU145)) (UniProt Q92793)
Experiment: co-IP; antibodies (5 ug/reaction) coupled to Protein A/G magnetic beads and cross-linked with DSS; lysate from 4,000,000 DU145 cells incubated with TGF-b1 for 24 h; 2 h at room temperature; low pH elution; Western blot; isotype IgG as negative control

By UniProt entry, the sequences of proteins in these tests, tags left out.
UniProt Q92793: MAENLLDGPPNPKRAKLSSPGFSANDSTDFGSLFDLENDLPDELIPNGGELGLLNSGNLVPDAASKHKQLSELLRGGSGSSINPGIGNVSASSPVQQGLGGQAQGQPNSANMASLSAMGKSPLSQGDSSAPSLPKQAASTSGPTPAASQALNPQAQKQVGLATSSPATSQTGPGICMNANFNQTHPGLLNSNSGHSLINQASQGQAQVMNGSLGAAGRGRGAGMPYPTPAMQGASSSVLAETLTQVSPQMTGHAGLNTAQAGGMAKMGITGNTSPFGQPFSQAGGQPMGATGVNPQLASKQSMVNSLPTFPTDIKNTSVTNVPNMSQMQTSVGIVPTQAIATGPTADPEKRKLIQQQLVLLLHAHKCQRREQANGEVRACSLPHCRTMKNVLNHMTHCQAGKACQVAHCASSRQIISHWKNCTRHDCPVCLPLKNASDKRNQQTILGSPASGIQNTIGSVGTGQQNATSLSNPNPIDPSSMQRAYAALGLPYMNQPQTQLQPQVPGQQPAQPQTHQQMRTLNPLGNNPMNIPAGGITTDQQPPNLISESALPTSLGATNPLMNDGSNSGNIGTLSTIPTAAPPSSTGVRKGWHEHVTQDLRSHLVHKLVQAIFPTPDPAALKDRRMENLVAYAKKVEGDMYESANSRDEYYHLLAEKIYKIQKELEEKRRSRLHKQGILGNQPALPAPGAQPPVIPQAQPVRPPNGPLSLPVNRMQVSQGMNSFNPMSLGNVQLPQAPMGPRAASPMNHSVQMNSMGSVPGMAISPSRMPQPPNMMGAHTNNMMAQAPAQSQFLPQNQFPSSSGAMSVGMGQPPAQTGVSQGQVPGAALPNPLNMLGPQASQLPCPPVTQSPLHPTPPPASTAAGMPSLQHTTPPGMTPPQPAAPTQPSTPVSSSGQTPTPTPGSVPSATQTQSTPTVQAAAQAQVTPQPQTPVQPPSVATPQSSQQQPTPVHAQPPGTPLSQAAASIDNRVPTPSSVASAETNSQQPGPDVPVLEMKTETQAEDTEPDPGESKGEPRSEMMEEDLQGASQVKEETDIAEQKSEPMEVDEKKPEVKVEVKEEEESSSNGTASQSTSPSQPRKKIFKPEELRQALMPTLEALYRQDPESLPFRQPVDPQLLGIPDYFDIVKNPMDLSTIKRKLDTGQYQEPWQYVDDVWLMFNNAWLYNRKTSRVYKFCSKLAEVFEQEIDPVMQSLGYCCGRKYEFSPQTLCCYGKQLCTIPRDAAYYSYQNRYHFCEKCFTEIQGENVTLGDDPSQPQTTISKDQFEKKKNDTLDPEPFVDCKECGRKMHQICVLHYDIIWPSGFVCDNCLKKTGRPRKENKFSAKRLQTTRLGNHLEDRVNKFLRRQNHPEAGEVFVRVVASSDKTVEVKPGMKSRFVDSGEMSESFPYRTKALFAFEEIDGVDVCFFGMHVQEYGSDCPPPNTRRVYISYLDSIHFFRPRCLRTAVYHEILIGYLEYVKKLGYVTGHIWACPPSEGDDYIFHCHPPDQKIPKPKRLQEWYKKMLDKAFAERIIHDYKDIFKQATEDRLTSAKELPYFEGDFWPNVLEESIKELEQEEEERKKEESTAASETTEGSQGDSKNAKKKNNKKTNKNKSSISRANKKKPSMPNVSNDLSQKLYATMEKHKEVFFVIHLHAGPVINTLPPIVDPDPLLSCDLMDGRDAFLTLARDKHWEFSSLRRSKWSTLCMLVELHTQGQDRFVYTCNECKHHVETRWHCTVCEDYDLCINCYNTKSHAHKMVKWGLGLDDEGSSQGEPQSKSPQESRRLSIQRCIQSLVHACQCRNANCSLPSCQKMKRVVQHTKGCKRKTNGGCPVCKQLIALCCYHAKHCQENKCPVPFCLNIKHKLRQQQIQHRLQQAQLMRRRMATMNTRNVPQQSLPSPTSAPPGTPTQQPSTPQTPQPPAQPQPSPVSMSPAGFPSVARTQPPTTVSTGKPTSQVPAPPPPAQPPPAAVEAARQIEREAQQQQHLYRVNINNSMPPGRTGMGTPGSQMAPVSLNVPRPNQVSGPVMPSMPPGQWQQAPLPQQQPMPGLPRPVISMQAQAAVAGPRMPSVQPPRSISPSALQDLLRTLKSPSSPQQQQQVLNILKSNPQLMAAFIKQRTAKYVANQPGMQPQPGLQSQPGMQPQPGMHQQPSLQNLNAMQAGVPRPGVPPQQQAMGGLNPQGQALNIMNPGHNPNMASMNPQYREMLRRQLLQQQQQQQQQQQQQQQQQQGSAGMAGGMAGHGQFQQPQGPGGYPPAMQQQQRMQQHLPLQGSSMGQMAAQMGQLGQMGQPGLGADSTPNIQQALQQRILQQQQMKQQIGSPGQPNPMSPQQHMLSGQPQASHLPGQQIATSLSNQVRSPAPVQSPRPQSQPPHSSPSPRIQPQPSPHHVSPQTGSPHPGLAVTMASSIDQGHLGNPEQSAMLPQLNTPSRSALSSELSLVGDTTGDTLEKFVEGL
UniProt Q15291: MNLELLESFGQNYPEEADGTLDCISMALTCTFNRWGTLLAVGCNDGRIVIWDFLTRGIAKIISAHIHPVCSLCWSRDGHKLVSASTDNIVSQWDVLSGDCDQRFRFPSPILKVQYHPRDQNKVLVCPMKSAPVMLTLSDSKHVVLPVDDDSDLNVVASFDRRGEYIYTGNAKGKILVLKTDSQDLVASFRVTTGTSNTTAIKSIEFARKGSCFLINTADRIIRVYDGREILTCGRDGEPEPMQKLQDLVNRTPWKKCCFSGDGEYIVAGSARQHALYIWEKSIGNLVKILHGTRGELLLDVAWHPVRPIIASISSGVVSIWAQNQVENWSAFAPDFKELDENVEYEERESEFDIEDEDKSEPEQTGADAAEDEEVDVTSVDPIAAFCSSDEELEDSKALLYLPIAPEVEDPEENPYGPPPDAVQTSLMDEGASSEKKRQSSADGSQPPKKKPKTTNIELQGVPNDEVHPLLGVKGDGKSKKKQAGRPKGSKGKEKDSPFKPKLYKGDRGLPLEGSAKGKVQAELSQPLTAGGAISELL

## RbBP5 (Retinoblastoma Binding Protein 5) (from UniProt Q15291 1-538)
  binding: binds
